Patent publication US11396522B2, “Bis-acetal-based substrates for imaging exo-glycosidase activity” (ALECTOS THERAPEUTICS INC., priority 2017, dated 2022)

Experiment: Fluorescence quenching efficiency of Glyco-BABS versus EDANS
Format: physicochemical
Details: in PBS, ratio of slopes of fluorescence vs concentration against EDANS

Point of comparison: CC(=O)N[C@H]1[C@H](O[C@@H](OCCOCCn2cc(CNC(=O)c3ccc(/N=N/c4ccc(N(C)C)cc4)cc3)nn2)[C@@](C)(O)C(=O)NCCNc2cccc3c(S(=O)(=O)O)cccc23)O[C@H](CO)[C@@H](O)[C@@H]1O [Compound 2, 5-((2-((2R,3R)-3-(((2S,3R,4R,5S,6R)-3-acetamido-4,5-dihydroxy-6-(hydroxymethyl)tetrahydro-2H-pyran-2-yl)oxy)-3-(2-(2-(4-((4-((E)-(4-(dimethylamino)phenyl)diazenyl)benzamido)methyl)-1H-1,2,3-triazol-1-yl)ethoxy)ethoxy)-2-hydroxy-2-methylpropanamido)ethyl)amino)naphthalene-1-sulfonic Acid], quenching efficiency 99.89%. Against it:
- CN(C)c1ccc(/N=N/c2ccc(C(=O)NCc3cn(CCOCCOC(CC(=O)NCCNc4cccc5c(S(=O)(=O)O)cccc45)O[C@@H]4O[C@H](CO)[C@@H](O)[C@H](O)[C@H]4O)nn3)cc2)cc1 (stereo partly drawn) [Compound 7, 5-((2-(3-(2-(2-(4-((4-((E)-(4-(dimethylamino)phenyl)diazenyl)benzamido)methyl)-1H-1,2,3-triazol-1-yl)ethoxy)ethoxy)-3-(((2S,3R,4S,5S,6R)-3,4,5-trihydroxy-6-(hydroxymethyl)tetrahydro-2H-pyran-2-yl)oxy)propanamido)ethyl)amino)naphthalene-1-sulfonic Acid] — lower, 99.87%
- CC(=O)N[C@H]1[C@H](O[C@@H](OCCOCCn2cc(CNC(=O)c3ccc(/N=N/c4ccc(N(C)C)cc4)cc3)nn2)[C@@](C)(Br)C(=O)NCCNc2cccc3c(S(=O)(=O)O)cccc23)O[C@H](CO)[C@@H](O)[C@@H]1O [Compound 1, 5-((2-((2R,3R)-3-(((2S,3R,4R,5S,6R)-3-acetamido-4,5-dihydroxy-6-(hydroxymethyl)tetrahydro-2H-pyran-2-yl)oxy)-2-bromo-3-(2-(2-(4-((4-((E)-(4-(dimethylamino)phenyl)diazenyl)benzamido)methyl)-1H-1,2,3-triazol-1-yl)ethoxy)ethoxy)-2-methylpropanamido)ethyl)amino)naphthalene-1-sulfonic Acid] — higher, 99.93%
- CN(C)c1ccc(/N=N/c2ccc(C(=O)NCc3cn(CCOCCO[C@H](O[C@@H]4O[C@H](CO)[C@@H](O)[C@H](O)[C@H]4O)[C@@](C)(O)C(=O)NCCNc4cccc5c(S(=O)(=O)O)cccc45)nn3)cc2)cc1 [Compound 6, 5-((2-((2R,3R)-3-(2-(2-(4-((4-((E)-(4-(dimethylamino)phenyl)diazenyl)benzamido)methyl)-1H-1,2,3-triazol-1-yl)ethoxy)ethoxy)-2-hydroxy-2-methyl-3-(((2S,3R,4S,5S,6R)-3,4,5-trihydroxy-6-(hydroxymethyl)tetrahydro-2H-pyran-2-yl)oxy)propanamido)ethyl)amino)naphthalene-1-sulfonic Acid] — higher, 99.95%
